In US20230227557A1 (PROMAB BIOTECHNOLOGIES, published 2023):
No constants are given. Whether binding was seen depends on the method and setting. Some binding calls cover weakened binding; strength is not graded here.

Sequences of proteins named here, by UniProt entry; tags and fusion partners are left off.
UniProt Q9NZQ7: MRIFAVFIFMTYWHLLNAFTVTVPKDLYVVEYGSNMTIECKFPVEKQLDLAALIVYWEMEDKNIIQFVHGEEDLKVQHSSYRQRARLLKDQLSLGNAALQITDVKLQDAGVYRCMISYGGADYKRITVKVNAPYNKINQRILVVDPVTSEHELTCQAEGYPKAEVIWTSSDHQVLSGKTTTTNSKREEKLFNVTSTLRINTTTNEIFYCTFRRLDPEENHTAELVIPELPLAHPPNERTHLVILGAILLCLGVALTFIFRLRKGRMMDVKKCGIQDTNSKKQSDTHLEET

Biological target: PD-L1 extracellular domain fused to human Fc (PD-L1-hFc) (UniProt Q9NZQ7)
Experiment: Western blot on the lysate of transfected HEK 293 cells

binding: binds
B1: mouse monoclonal anti-human PD-L1 antibody (hybridoma clone 7D2A10) (antibody, V domains shown)
VH: QIQLVQSGPELKNPGETVKISCKASGYTFTNYGMNWVKQAPGKGLKWMGWINTHTGEPTYADDFKGRFAFSSETSASSAYLQINNLKNDDMATYFCAKGTHREEIPAWFAYWGQGTLVTVSA
VL: DVLMTQTPLSLPVSLGDQASISCRSSQSIVHSNGNTYLEWYLQKPGQSPELLIYKVSNLFSGVPDRFSGSGSGTDFTLKISRVEAEDLGVYYCFQGSHVPPTFGAGTKLELKR
notes: also called Promab anti-PD-L1; PD-L1 monoclonal antibody
